Some of the results follow. Shown are side measurements of this screen, not its main read-out; they come without a call. The list favours compounds with an active or inconclusive main result. The note in brackets gives the kind of curve behind each potency; many fits are weak.
Assay: qHTS Assay for Lipid Storage Modulators in Drosophila S3 Cells;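 as to cell number change: cells counted by Cell Tracker Red CMTPX staining in the red channel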
Settings: BODIPY lipid droplet fluorescence, 18-24 h; for cell number change: measured here: cell count max response, cells fed with added oleic acid
How it was run: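 Drosophila S3 cells got compounds at several concentrations plus oleic acid (400 uM solution). Laser-scanning cytometry with 488 nm excitation read lipid droplets at 500-530 nm and cells at 575-640 nm. Percent activity was relative to 20 uM Triacsin C.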

[1] = measured here: lipid fluorescence (Fed channel) AC50, cells fed with added oleic acid
[2] = measured here: cell number channel AC50, cells fed with added oleic acid

Row | SMILES | AC50 [1] | cell number change [%] | AC50 [2]
1 | CS(=O)(=O)c1ccc2nc(NC(=O)Nc3cccc(Cl)c3)sc2c1 | 8.2 µM [falling, partial curve] |  | 
2 | O=C1NC2(CCCCC2)C(=O)N1CCS(=O)(=O)Oc1ccccc1 |  | -1.09 | 
3 | C/C(=N\NC(=O)COc1cccc(C)c1)c1ccc2ccccc2c1O | 29.1 µM [falling, single point] | -8.22 | 
4 | COc1ccc(CNCCC(c2ccc(F)cc2)c2ccc(OC(C)C)cc2)cc1OC (stereo not drawn) | 23.1 µM [falling, partial curve, poor fit] | -44.7 | 23.1 µM [falling, partial curve]
5 | NNC(=O)COc1ccc(-c2n[nH]c(C(F)(F)F)c2-c2ccc(Br)cc2)c(O)c1 | 0.461 µM [falling, single point] | -24.1 | 
6 | O=C(NS(=O)(=O)c1ccccc1)c1ccccc1 | 29.1 µM [falling, single point] | -51.8 | 29.1 µM [falling, single point]
7 | S=c1[nH]nc(COc2ccccc2)n1/N=C/c1cccs1 | 32.6 µM [falling, single point] | -23.1 | 
8 | COc1ccc(CCN(C)C(=O)N2CCOCC2)cc1OC | 2.31 µM [falling, partial curve] | -18.4 | 
9 | CN(CC(=O)Nc1ccc(F)c(F)c1F)C(=O)CCCc1nc2ccccc2c(=O)[nH]1 | 0.651 µM [rising, partial curve] | -9.52 | 
10 | COc1ccc(OC)c(NC(=O)C2=C(C)Nc3ncnn3C2c2cccs2)c1 (stereo not drawn) | 0.82 µM [rising, full curve, poor fit] | 13.1 | 
11 | COc1ccc(NC(=S)NCCCN2CCCC2)cc1Cl |  | -3.79 | 
12 | COc1ccc(-c2nc3ccccc3c(=O)n2CCOc2ccc(C)cc2C)cc1 | 32.6 µM [falling, single point] | -26.5 | 
13 | CCCC(=O)Nc1cc(C)c(NC(=O)c2ccco2)cn1 | 29.1 µM [rising, single point] | 31.1 | 32.6 µM [rising, single point]
14 | c1ccc(CCc2nc(-c3ccccn3)no2)cc1 |  | 33.3 | 18.4 µM [rising, single point]
15 | COc1ccc(NC(=O)c2sc3nc(N4CCCC4)c4c(c3c2N)CC(C)(C)OC4)c(OC)c1 | 16.4 µM [rising, single point] | -1.53 | 
16 | COc1ccccc1N1CCN(C(c2ccc(C)cc2)c2nnnn2C(C)C)CC1 (stereo not drawn) |  | 32.8 | 6.51 µM [rising, partial curve, poor fit]
17 | COc1cc(/C=N/Nc2nc3c(c(=O)n(C)c(=O)n3C)n2Cc2ccccc2)ccc1OC(=O)c1ccco1 | 14.6 µM [falling, partial curve] | -55.7 | 16.4 µM [falling, single point]
18 | CCc1ccc(NC(=O)c2cc(-c3ccc4c(c3)OCO4)on2)cc1 | 1.16 µM [rising, single point] | 36.2 | 
19 | CCOc1cc(C(=O)Nc2cnccn2)cc(OCC)c1OCC |  | 13.1 | 

Row | SMILES | AC50 [1] | cell number change [%] | AC50 [2]
20 | O=C(NCCc1ccccc1)c1ccccc1NC(=O)C1CC=CCC1C(=O)O (stereo not drawn) |  | -33 | 13 µM [falling, partial curve, poor fit]
21 | Cc1cc(C)c(CN2CCC(n3nccc3NC(=O)CCOc3ccccc3)CC2)cc1C | 18.4 µM [falling, single point] | -4.89 | 
22 | CCOC(=O)C1=C(C)N(c2ccc(C)cc2)C(=O)/C1=C\c1cccs1 |  | -10.4 | 
23 | O=C(C1CCCN(S(=O)(=O)c2cccc3nonc23)C1)N1CCN(c2cccc(Cl)c2)CC1 (stereo not drawn) |  | 10.7 | 
24 | CC(NC(=O)c1ccc2ccccc2n1)c1ccc(S(N)(=O)=O)cc1 (stereo not drawn) | 29.1 µM [falling, single point] | 20.5 | 
25 | O=C(CNS(=O)(=O)c1ccc(Br)s1)N1CCC(N2CCCCC2)CC1 | 2.06 µM [rising, full curve, poor fit] | 21.7 | 
26 | CCCCN(C(=O)c1ccc2ccccc2c1)c1c(N)n(CCCC)c(=O)[nH]c1=O |  | -9.77 | 
27 | Cc1cccc(CSCCNC(=O)c2ccc(N(C)S(=O)(=O)c3ccccc3)cc2)c1 |  |  | 1.84 µM [rising, single point]
28 | NC(=O)C1(N2CCCCC2)CCN(C(=S)NCCc2ccccc2)CC1 |  |  | 0.092 µM [falling, full curve, poor fit]
29 | Cc1ccc(S(=O)(=O)N(C)C)cc1NC(=O)C(C)N(C)Cc1sccc1C (stereo not drawn) |  | -12.8 | 
30 | CCNC(=O)Cn1c(=O)c2c(ncn2Cc2ccccc2)n(Cc2ccccc2)c1=O | 2.31 µM [falling, partial curve, poor fit] |  | 
31 | COC(=O)c1ccc2c(=O)n(CCCCCC(=O)NCc3ccccc3)c(=O)[nH]c2c1 |  | 14.5 | 1.16 µM [falling, full curve]
32 | C=CCn1c(COc2ccc(F)cc2)nnc1SCC(=O)Nc1cccc(S(N)(=O)=O)c1 | 1.03 µM [rising, partial curve] |  | 
33 | O=C(/C=C/c1ccc(Cl)cc1)N1CCN(c2ccc([N+](=O)[O-])c(N3CCOCC3)c2)CC1 | 16.4 µM [falling, single point] | -18.9 | 
34 | O=C(c1ccco1)N1CCN(CC(O)COc2ccc(Br)cc2)CC1 (stereo not drawn) |  | 9.91 | 0.00411 µM [rising, full curve, poor fit]
35 | CNC(=O)[C@H]1O[C@@H](n2cnc3c(NCc4cccc(I)c4)ncnc32)[C@H](O)[C@@H]1O | 13 µM [rising, partial curve] | 25.6 | 
36 | COc1ccc(NC(=O)CSc2nc(=O)n(CCN3CCOCC3)c3c2CCC3)c(OC)c1 | 1.64 µM [falling, partial curve, poor fit] | -44.9 | 29.1 µM [falling, single point]
37 | COc1cccc(CN(C)C(=O)c2ccc(OCC(=O)Nc3cccc(C(F)(F)F)c3)c(OC)c2)c1 | 3.26 µM [falling, full curve, poor fit] |  | 
38 | C=CCn1nc2ccccc2c1OCCO | 29.1 µM [rising, single point] | 21.7 | 

Entries shown so far that have an aryl thioether with sulfur outside any ring (2):
Row | SMILES | AC50 [1] | cell number change [%] | AC50 [2]
32 | C=CCn1c(COc2ccc(F)cc2)nnc1SCC(=O)Nc1cccc(S(N)(=O)=O)c1 | 1.03 µM [rising, partial curve] |  | 
36 | COc1ccc(NC(=O)CSc2nc(=O)n(CCN3CCOCC3)c3c2CCC3)c(OC)c1 | 1.64 µM [falling, partial curve, poor fit] | -44.9 | 29.1 µM [falling, single point]

Reference: PubChem BioAssay AID2685 (National Center for Advancing Translational Sciences (NCATS), 2010)
